{"source": "PubChem BioAssay AID720505 | Drosophila RNAi Screening Center – 2013", "purpose": "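Genes needed for store-operated calcium entry in fly cells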 (primary screen)", "cell system": "Drosophila S2R+ cells", "knock-down reagent": "long dsRNA against Drosophila genes", "challenge": "thapsigargin (2 µM) in calcium-free buffer to empty internal stores, then 2 mM calcium added back", "read-out": "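Fluo-4 signal in 384-well plates read on a FLIPR after thapsigargin (2 µM, calcium-free) store depletion and 2 mM calcium add-back; unnormalised mean endpoint per well; screen run twice, selected wells retested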", "scale": "calcium signal and retest calcium signal: higher = more calcium entry after store depletion", "active means": "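Knock-downs counted as hits when calcium entry dropped relative to STIM1 positive and Rho1 negative controls present on each plate; roughly 1500 genes called, with reductions of differing size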", "meaning of the calls": "active = called as lowering calcium entry; inactive = not called", "note": "The deposit covers about 20,000 reagents; shown is a random part of those that have a named target and a result. Of all reagents, about 2,100 (10%) were called active. 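Raw plate signals without normalisation; calls rest on control-based scores that were not deposited; replicate 2 separates called from uncalled poorly.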 Unmarked entries are inactive. The numbers tell different reagents against one gene apart. A plus sign joins genes that one reagent is predicted to hit. No sequences are given here. Not stated in the record: the amount of reagent, the time to read-out."}
{"gene":"CG2790","reagent":1,"calcium signal, replicate 1":92.6,"calcium signal, replicate 2":119}
{"gene":"pr (purple)","reagent":1,"calcium signal, replicate 1":98,"calcium signal, replicate 2":107}
{"gene":"CG12926","reagent":1,"calcium signal, replicate 1":126,"calcium signal, replicate 2":111,"retest calcium signal, replicate 1":104,"retest calcium signal, replicate 2":138}
{"gene":"CG12926","reagent":2,"calcium signal, replicate 1":106,"calcium signal, replicate 2":243}
{"gene":"CG12877","reagent":1,"calcium signal, replicate 1":107,"calcium signal, replicate 2":90.6}
{"gene":"CG13930","reagent":1,"calcium signal, replicate 1":93.6,"calcium signal, replicate 2":64.9}
{"gene":"CG12609","reagent":1,"calcium signal, replicate 1":"61.9 (active)","calcium signal, replicate 2":89.8}
{"gene":"Osi18 (Osiris 18)","reagent":1,"calcium signal, replicate 1":162,"calcium signal, replicate 2":191}
{"gene":"Usp12-46 (Ubiquitin-specific protease 12/46)","reagent":1,"calcium signal, replicate 1":154,"calcium signal, replicate 2":90.4}
{"gene":"Daxx (Daxx-like protein)","reagent":1,"calcium signal, replicate 1":96.5,"calcium signal, replicate 2":278}
{"gene":"Trf4-1 (Topoisomerase related function 4-1)","reagent":1,"calcium signal, replicate 1":219,"calcium signal, replicate 2":118}
{"gene":"CG7423","reagent":1,"calcium signal, replicate 1":188,"calcium signal, replicate 2":97.6}
{"gene":"Vps13D (Vacuolar protein sorting 13D)","reagent":1,"calcium signal, replicate 1":66.8,"calcium signal, replicate 2":78.1}
{"gene":"Vps13D (Vacuolar protein sorting 13D)","reagent":2,"calcium signal, replicate 1":54.1,"calcium signal, replicate 2":72}
{"gene":"CG8814","reagent":1,"calcium signal, replicate 1":91.5,"calcium signal, replicate 2":220}
{"gene":"Sema1a (Semaphorin 1a)","reagent":1,"calcium signal, replicate 1":173,"calcium signal, replicate 2":150}
{"gene":"CG43100 (retired record)","reagent":1,"calcium signal, replicate 1":138,"calcium signal, replicate 2":97.9}
{"gene":"eIF4A (eukaryotic translation initiation factor 4A)","reagent":1,"calcium signal, replicate 1":148,"calcium signal, replicate 2":97.7}
{"gene":"ymp (yellow-emperor)","reagent":1,"calcium signal, replicate 1":"55.2 (active)","calcium signal, replicate 2":125}
{"gene":"spn-E (spindle E)","reagent":1,"calcium signal, replicate 1":115,"calcium signal, replicate 2":149}
{"gene":"CG14932","reagent":1,"calcium signal, replicate 1":212,"calcium signal, replicate 2":110}
{"gene":"CG3253","reagent":1,"calcium signal, replicate 1":134,"calcium signal, replicate 2":81.3,"retest calcium signal, replicate 1":69.5,"retest calcium signal, replicate 2":101}
{"gene":"lncRNA:CR40629 (long non-coding RNA:CR40629)","reagent":1,"calcium signal, replicate 1":86.7,"calcium signal, replicate 2":11707}
{"gene":"CG43108","reagent":1,"calcium signal, replicate 1":74.3,"calcium signal, replicate 2":179}
{"gene":"sim (single-minded)","reagent":1,"calcium signal, replicate 1":85.8,"calcium signal, replicate 2":152}
{"gene":"Ir68a (Ionotropic receptor 68a)","reagent":1,"calcium signal, replicate 1":85.9,"calcium signal, replicate 2":98.9}
{"gene":"cav (caravaggio)","reagent":1,"calcium signal, replicate 1":203,"calcium signal, replicate 2":206}
{"gene":"CG3176 + CR18166 + CG32817","reagent":1,"calcium signal, replicate 1":115,"calcium signal, replicate 2":85.9}
{"gene":"Sardh (Sarcosine dehydrogenase)","reagent":1,"calcium signal, replicate 1":188,"calcium signal, replicate 2":147}
{"gene":"CG3040","reagent":1,"calcium signal, replicate 1":141,"calcium signal, replicate 2":179}
{"gene":"Gip (GIP-like)","reagent":1,"calcium signal, replicate 1":153,"calcium signal, replicate 2":179}
{"gene":"CG2685","reagent":1,"calcium signal, replicate 1":86.4,"calcium signal, replicate 2":130}
{"gene":"ND5 (retired record)","reagent":1,"calcium signal, replicate 1":"68.7 (active)","calcium signal, replicate 2":173}
{"gene":"aru (arouser)","reagent":1,"calcium signal, replicate 1":119,"calcium signal, replicate 2":165}
{"gene":"aru (arouser)","reagent":2,"calcium signal, replicate 1":89.4,"calcium signal, replicate 2":254}

3 entries already listed, sorted by “calcium signal, replicate 1”, ascending.
{"gene":"Vps13D (Vacuolar protein sorting 13D)","reagent":2,"calcium signal, replicate 1":54.1,"calcium signal, replicate 2":72}
{"gene":"CG8814","reagent":1,"calcium signal, replicate 1":91.5,"calcium signal, replicate 2":220}
{"gene":"Sema1a (Semaphorin 1a)","reagent":1,"calcium signal, replicate 1":173,"calcium signal, replicate 2":150}
